Measured values as given in PubChem BioAssay AID504834 (National Center for Advancing Translational Sciences (NCATS), 2011).
About 22,000 (6.9%) of roughly 320,000 compounds were called active. This list was built around the results that the source calls inconclusive (neither active nor inactive); the mix of calls is not that of the screen. The call rests on the fitted dose curve; in most records, active means well fitted inhibition curve with a large enough effect; inconclusive means small, poorly fitted or top-dose-only effect, or another doubt; inactive means no such curve, though single readings can be large or run the other way. Potencies of inconclusive entries are doubtful fits and often do not repeat.

test: Primary qHTS for delayed death inhibitors of the malarial parasite plastid, 96 hour incubation; details: P. falciparum luciferase reporter growth; series mostly up to 28.7 µM; activity change, negative = inhibition: at the top concentration
Outline: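 Delayed-death screen, second-generation endpoint: infected erythrocytes, 2% hematocrit, 0.05% parasitemia final; 96 hours at 37 C, 5% CO2; luciferase detection reagent; luminescence decrease equals reduced growth.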
On the % scale 0 is the no-effect control and ±100 the full control effect; potency means the concentration at half of the fitted maximal effect.

| SMILES | Potency | activity change, negative = inhibition |
| --- | --- | --- |
| Cc1ccc(-n2[nH]c(=O)c3cccnc32)cc1 | inconclusive: 0.522 µM [inhibitor, full curve, poor fit] |  |
| O=C(O)CCCNC(=O)CCCn1nnc2ccccc2c1=O |  | inactive: 22.2% |
| Cc1cc(NC(=O)OC2CCCCC2)ccc1[N+](=O)[O-] |  | inactive: 0% |
| N#C/C(=N\O)c1nc2ccccc2[nH]1 |  | inactive: -0.523% |
| O=C(CCl)N1N=C(c2ccco2)CC1c1cccs1 (stereo not given) | inconclusive: 2.62 µM [inhibitor, partial curve, poor fit] |  |
| CCOC(=O)c1c(C)n(C)c2c(C)cc(O)c(OC(=O)CC)c12 | inconclusive: 0.0294 µM [inhibitor, full curve, poor fit] |  |
| CCN(CC)CCNC(=O)COc1ccc(Cl)cc1Cl |  | inactive: 158% |
| CN(C)CCNC(=O)/C(=C/c1ccc(-c2ccc(Cl)cc2)o1)NC(=O)c1ccccc1 |  | inactive: 29.5% |
| COc1ccc(OC)c(CCNC(=O)Cn2cccc2C(=O)c2ccccc2C)c1 | inconclusive: 7.38 µM [inhibitor, single point] |  |
| CCCN(CC(=O)Nc1ccccc1C)C(=O)c1nn(CC)c(=O)c2ccccc12 | inconclusive: 11.7 µM [inhibitor, single point] |  |
| COc1cc(OC)cc(C(=O)NNC(=O)C(=O)Nc2cc(OC)c(Cl)cc2OC)c1 | inconclusive: 1.85 µM [inhibitor, full curve, poor fit] |  |
| Cc1ccc(NC(=O)C2C3C=CC4(O3)C2C(=O)N(CCCN2CCCC(C)C2)C4C(=O)NC2CCCCC2)cc1 (stereo not given) |  | inactive: 9.37% |
| OCCN1C2=NCCCN2c2ccccc21 | active: 7.38 µM |  |
| O=C(NCc1ccc(N2CCCC2=O)cc1)c1cc(COc2c(F)cccc2F)on1 | inconclusive: 16.5 µM [inhibitor, single point] |  |
| Cc1sc(NC(=S)NC(=O)C2CCCCC2)c(C(N)=O)c1C |  | inactive: 4.38% |
| O[C@@H]1CN(C2CCCCC2)CC[C@H]1N1CCN(CCc2ccccc2)CC1 | inconclusive: 18.5 µM [inhibitor, single point] |  |
| CN(C)/C=C/C(=O)c1cnc(-c2cccc(Cl)c2)s1 |  | inactive: 148% |
| CCOc1ccc(NC(=S)N2CCN(C/C=C/c3ccccc3)CC2)cc1 |  | inactive: -4.54% |
| O=C(CSc1nnc2ccccn12)Nc1cccc(-c2nc3ccccc3s2)c1 | inconclusive: 11.7 µM [inhibitor, single point] |  |
| COC(=O)CSC1=C(C#N)C(c2sccc2C)CC(=O)N1 (stereo not given) | inconclusive: 18.5 µM [inhibitor, single point] |  |
| CC(C)(C)N=C1NN=C(c2cc3ccccc3o2)CS1 | inconclusive: 18.5 µM [inhibitor, single point] |  |
| O=C(OCCOc1ccccc1)c1cccc(S(=O)(=O)N2CCOCC2)c1 | inconclusive: 0.185 µM [inhibitor, full curve, poor fit] |  |
| COc1ccc(-c2ccc(SCc3ccccn3)nn2)cc1OC | active: 2.62 µM |  |

| SMILES | Potency | activity change, negative = inhibition |
| --- | --- | --- |
| COc1ccc2c(c1)C1(C)CC(C)(C)N2C(=O)N1c1ccccc1 (stereo not given) | active: 10.4 µM |  |
| C=CCN(c1ccc(F)cc1)S(=O)(=O)c1cc(C(=O)NC2CCC(O)CC2)ccc1Cl (stereo not given) | active: 5.22 µM |  |
| CCOC(=O)c1sc(-c2ccccc2)cc1NC(=O)Nc1ccc([N+](=O)[O-])cc1 | inconclusive: 2.62 µM [inhibitor, single point] |  |
| Cc1ccc(OCC(=O)N/N=C/c2cccc3cccnc23)cc1 | inconclusive: 0.0522 µM [inhibitor, full curve, poor fit] |  |
| COc1ccc(NC(=O)c2c(C)noc2C(C)C)cc1S(=O)(=O)N1CCCCC1 | inconclusive: 18.5 µM [inhibitor, single point] |  |
| COc1ccc(OC(C)C(=O)NC(C)c2ccccc2)cc1 (stereo not given) | inconclusive: 0.828 µM [inhibitor, full curve] |  |
| CC1CN(c2ccc([N+](=O)[O-])c(NCCOc3ccccc3)c2)CC(C)N1 (stereo not given) |  | inactive: 105% |
| Cc1ccc(CNc2ccc3c(c2)nc(C)n3C)cc1 | inconclusive: 2.94 µM [inhibitor, partial curve, poor fit] |  |
| Cc1ccc2nc(N3CCN(C)CC3)[nH]c2c1 | inconclusive: 18.5 µM [inhibitor, single point] |  |
| CCCS(=O)(=O)c1ccc(COC(=O)Cc2ccc([N+](=O)[O-])cc2)cc1 | active: 2.94 µM |  |
| COCCNC(=O)CN(C(=O)CCC(=O)Nc1ccccn1)c1ccc(C)c(C)c1 | active: 9.28 µM |  |
| COc1cc(CC(=O)OCC(=O)c2ccc3c(c2)OCCO3)cc(OC)c1OC |  | inactive: -4.17% |
| CCn1cc([N+](=O)[O-])c(C(=O)N2N=C(c3ccc(Cl)c(Cl)c3)CC2c2ccccc2O)n1 (stereo not given) | inconclusive: 3.29 µM [inhibitor, full curve, poor fit] |  |
| O=C(NCCSc1ccccc1)c1ccc(Br)cc1 | inconclusive: 18.5 µM [inhibitor, single point] |  |
| CCOC(=O)C1C2c3ccccc3O[C@@]1(C)N=C1SCC(=O)N12 (stereo not given in full) | inconclusive: 1.31 µM [inhibitor, full curve, poor fit] |  |
| CN(C)[C@@H]1C(=O)C(C(N)=O)=C(O)[C@]2(O)C(=O)C3=C(O)c4c(O)ccc(Cl)c4[C@](C)(O)[C@H]3C[C@@H]12 | inconclusive: 8.09 µM [inhibitor, single point] |  |
| CC(C)CN1CCC(=O)N([C@H](CSc2ccccc2)Cc2ccccc2)CC1 | active: 13.1 µM |  |
| Cc1ccc(-n2c(O)c(C=Nc3ccccc3-c3n[nH]c(=S)[nH]c3=O)c3ccccc3c2=O)cc1C | inconclusive: 11.7 µM [inhibitor, single point] |  |
| O=C(NCc1cccs1)c1cc(-c2cccc(Cl)c2)on1 |  | inactive: 14.2% |
| CC(NS(=O)(=O)c1ccc2c(c1)oc(=O)n2C)c1ccccc1 (stereo not given) | inconclusive: 18.5 µM [inhibitor, single point] |  |
| NC(=O)CSc1cn(Cc2cccc(F)c2)c2ccccc12 | inconclusive: 0.657 µM [inhibitor, full curve, poor fit] |  |
| Oc1cc2c(cc1CN1CCc3ccccc3C1)OCO2 | inconclusive: 14.7 µM [inhibitor, partial curve, poor fit] |  |

An excerpt taken from the entries so far:

| SMILES | Potency | activity change, negative = inhibition |
| --- | --- | --- |
| COc1ccc2c(c1)C1(C)CC(C)(C)N2C(=O)N1c1ccccc1 (stereo not given) | active: 10.4 µM |  |
| C=CCN(c1ccc(F)cc1)S(=O)(=O)c1cc(C(=O)NC2CCC(O)CC2)ccc1Cl (stereo not given) | active: 5.22 µM |  |
| CCOC(=O)c1sc(-c2ccccc2)cc1NC(=O)Nc1ccc([N+](=O)[O-])cc1 | inconclusive: 2.62 µM [inhibitor, single point] |  |
